Consider 42 molecules from patent publication US20160090556A1, “PRODUCTS COMPRISING MALODOR REDUCTION MATERIALS” (The Procter & Gamble Company, priority 2014, published 2016).

Some compounds share one wording; it may come from a single statement.

One series in a line: Melamine formaldehyde PMC leakage.
Settings: not given
For the molecule `CC(C)CCc1ccc2c(c1)OCC(=O)CO2` [Material 658], the “Melamine formaldehyde PMC leakage (Comment Code J)” value is “J (Melamine formaldehyde PMC leakage less than or equal to 5%)”.
`CC(=O)c1cc2c(cc1C)C(C)(C)C(C)C2(C)C` (stereo not shown) [Material 927]: the “Melamine formaldehyde PMC leakage (Comment Code J)” value is “J (Melamine formaldehyde PMC leakage less than or equal to 5%)”.

The series is the same for the next values; noted with them: class code letter within Comment Code.
For `CCCCCCCCCCCCO` [Material 174], the “Melamine formaldehyde PMC leakage (Comment Code J)” value is recorded as “J (Melamine formaldehyde PMC leakage less than or equal to 5%)”.
As for `CCCCCCCC1OCC(C)O1` (stereo not shown) [Material 30], the “Melamine formaldehyde PMC leakage (Comment Code J)” value was “J (Melamine formaldehyde PMC leakage less than or equal to 5%)”.
On the same count and under the same terms, to `CCCCCCCCC(=O)OCC` [Material 386] belongs “J (Melamine formaldehyde PMC leakage less than or equal to 5%)”; to `C/C=C1/CC2CC1C1CCC(=O)OC21` (stereo not shown) [Material 353], “J (Melamine formaldehyde PMC leakage less than or equal to 5%)”.

Staying with this series, now noted: code letter J.
As to `C/C=C1/CC2CC1C1CCC(=O)OC21` (stereo not shown) [Material 353], the “Comment Code: Melamine formaldehyde PMC leakage” value is recorded as “J (Melamine formaldehyde PMC leakage less than or equal to 5%)”.

Another series in a line: Melamine formaldehyde PMC Headspace Response Ratio.
Settings: not given
Turning to `CCCOC(C)OCCC` [Material 767], the “Melamine formaldehyde PMC Headspace Response Ratio (Comment Code I)” value is “I (Melamine formaldehyde PMC Headspace Response Ratio greater than or equal to 10)”.
The same measure, in the same setting: the value for `OCCc1ccccc1` [Material 955] was “I (Melamine formaldehyde PMC Headspace Response Ratio greater than or equal to 10)”.
`CCCCCCCCO` [Material 580]: the “Melamine formaldehyde PMC Headspace Response Ratio (Comment Code I)” value is recorded as “I (Melamine formaldehyde PMC Headspace Response Ratio greater than or equal to 10)”.
For the molecule `C=C/C(C)=C/CC=C(C)C` [Material 1077], the “Melamine formaldehyde PMC Headspace Response Ratio (Comment Code I)” value is listed as “I (Melamine formaldehyde PMC Headspace Response Ratio greater than or equal to 10)”.
Same read-out and setting: to `OCCOc1ccccc1` [Material 834] belongs “I (Melamine formaldehyde PMC Headspace Response Ratio greater than or equal to 10)”.
The same measure, in the same setting: to `COc1ccc(C=O)c(OC)c1OC` [Material 733] belongs “I (Melamine formaldehyde PMC Headspace Response Ratio greater than or equal to 10)”.

The same series, now with this note: class code letter within Comment Code.
For the molecule `CC(O)CCc1ccccc1` (stereo not shown) [Material 98], the “Melamine formaldehyde PMC Headspace Response Ratio (Comment Code I)” value is “I (Melamine formaldehyde PMC Headspace Response Ratio greater than or equal to 10)”.
For `CCCCSCCCC` [Material 453], the “Melamine formaldehyde PMC Headspace Response Ratio (Comment Code I)” value is “I (Melamine formaldehyde PMC Headspace Response Ratio greater than or equal to 10)”.
Take `Cc1ccc2c(c1)OCC(=O)CO2` [Material 17]: the “Melamine formaldehyde PMC Headspace Response Ratio (Comment Code I)” value is recorded as “I (Melamine formaldehyde PMC Headspace Response Ratio greater than or equal to 10)”.
Regarding `CCCCCCCC=O` [Material 31], the “Melamine formaldehyde PMC Headspace Response Ratio (Comment Code I)” value was “I (Melamine formaldehyde PMC Headspace Response Ratio greater than or equal to 10)”.
Same read-out and setting: to `CCCCCCC(=O)CC` [Material 394] belongs “I (Melamine formaldehyde PMC Headspace Response Ratio greater than or equal to 10)”; to `CC/C=C\CCCCCO` [Material 530], “I (Melamine formaldehyde PMC Headspace Response Ratio greater than or equal to 10)”; to `C=CC(=C)CCC=C(C)C` [Material 33], “I (Melamine formaldehyde PMC Headspace Response Ratio greater than or equal to 10)”.
Consider `CCCCCC1CCC(=O)O1` (stereo not shown) [Material 321], for which the “Melamine formaldehyde PMC Headspace Response Ratio (Comment Code I)” value is “I (Melamine formaldehyde PMC Headspace Response Ratio greater than or equal to 10)”.
As to `C=CC(C)=CCC=C(C)C` [Material 524], the “Melamine formaldehyde PMC Headspace Response Ratio (Comment Code I)” value was “I (Melamine formaldehyde PMC Headspace Response Ratio greater than or equal to 10)”.

The same series, now with this note: code letter I.
For `CCCCCCCO` [Material 282], the “Comment Code: Melamine formaldehyde PMC Headspace Response Ratio” value was “I (Melamine formaldehyde PMC Headspace Response Ratio greater than or equal to 10)”.
In the case of `COc1ccc(C=O)cc1OC` [Material 1118], the “Comment Code: Melamine formaldehyde PMC Headspace Response Ratio” value is “I (Melamine formaldehyde PMC Headspace Response Ratio greater than or equal to 10)”.
The same measure, in the same setting: to `CCC(=O)CC(C)CC` (stereo not shown) [Material 784] belongs “I (Melamine formaldehyde PMC Headspace Response Ratio greater than or equal to 10)”.
`CCCCCC1CCCC1O` (stereo not shown) [Material 836]: the “Comment Code: Melamine formaldehyde PMC Headspace Response Ratio” value was “I (Melamine formaldehyde PMC Headspace Response Ratio greater than or equal to 10)”.
As to `CC(O)CCC1CCCCC1` (stereo not shown) [Material 699], the “Comment Code: Melamine formaldehyde PMC Headspace Response Ratio” value is given as “I (Melamine formaldehyde PMC Headspace Response Ratio greater than or equal to 10)”.
As to `COc1cc(C)cc(O)c1` [Material 811], the “Comment Code: Melamine formaldehyde PMC Headspace Response Ratio” value is “I (Melamine formaldehyde PMC Headspace Response Ratio greater than or equal to 10)”.
For `CCC(C)C(=O)OC` (stereo not shown) [Material 904], the “Comment Code: Melamine formaldehyde PMC Headspace Response Ratio” value was “I (Melamine formaldehyde PMC Headspace Response Ratio greater than or equal to 10)”.
Consider `CCC/C=C\CO` [Material 547], for which the “Comment Code: Melamine formaldehyde PMC Headspace Response Ratio” value is listed as “I (Melamine formaldehyde PMC Headspace Response Ratio greater than or equal to 10)”.
Take `CC=Cc1ccc(O)c(OC)c1` [Material 214]: the “Comment Code: Melamine formaldehyde PMC Headspace Response Ratio” value is on record as “I (Melamine formaldehyde PMC Headspace Response Ratio greater than or equal to 10)”.
On the same count and under the same terms, to `CC(=O)CCc1ccc(O)cc1` [Material 1002] belongs “I (Melamine formaldehyde PMC Headspace Response Ratio greater than or equal to 10)”; to `CC/C=C\CCO` [Material 542], “I (Melamine formaldehyde PMC Headspace Response Ratio greater than or equal to 10)”; to `CCOCCOCCO` [Material 579], “I (Melamine formaldehyde PMC Headspace Response Ratio greater than or equal to 10)”.
Regarding `C/C=C\c1ccc(O)c(OC)c1` [Material 528], the “Comment Code: Melamine formaldehyde PMC Headspace Response Ratio” value is reported as “I (Melamine formaldehyde PMC Headspace Response Ratio greater than or equal to 10)”.
As to `COC(=O)C=C1CCCC1` [Material 116], the “Comment Code: Melamine formaldehyde PMC Headspace Response Ratio” value is listed as “I (Melamine formaldehyde PMC Headspace Response Ratio greater than or equal to 10)”.
With `COc1ccc(C(C)=O)cc1` [Material 761], the “Comment Code: Melamine formaldehyde PMC Headspace Response Ratio” value is reported as “I (Melamine formaldehyde PMC Headspace Response Ratio greater than or equal to 10)”.
With `CC/C=C\CCOC(=O)C1CC1` [Material 84], the “Comment Code: Melamine formaldehyde PMC Headspace Response Ratio” value was “I (Melamine formaldehyde PMC Headspace Response Ratio greater than or equal to 10)”.
Turning to `O=C/C=C/c1ccccc1` [Material 554], the “Comment Code: Melamine formaldehyde PMC Headspace Response Ratio” value was “I (Melamine formaldehyde PMC Headspace Response Ratio greater than or equal to 10)”.
On to `CC1CCC2(CCCC(=O)O2)C1` (stereo not shown) [Material 107], for which the “Comment Code: Melamine formaldehyde PMC Headspace Response Ratio” value is reported as “I (Melamine formaldehyde PMC Headspace Response Ratio greater than or equal to 10)”.
Still for that read-out and setting: to `Cc1ccnc2ccccc12` [Material 166] belongs “I (Melamine formaldehyde PMC Headspace Response Ratio greater than or equal to 10)”; to `CC1CCC(=O)C1=O` (stereo not shown) [Material 810], “I (Melamine formaldehyde PMC Headspace Response Ratio greater than or equal to 10)”.
Take `CC(C)=CCCC(C)CC#N` (stereo not shown) [Material 509]: the “Comment Code: Melamine formaldehyde PMC Headspace Response Ratio” value was “I (Melamine formaldehyde PMC Headspace Response Ratio greater than or equal to 10)”.
